Source: PubChem BioAssay AID1224830 (NIAID, 2016)

Test: 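Genes whose knock-down alters the TNF-alpha reporter response to LPS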 (primary screen)
System: human THP-1 monocytic leukaemia cells, TNF dual-luciferase reporter clone, PMA-differentiated to macrophage-like cells
Reagent: siRNA pool against human genes, 50 nM
Duration: LPS for 4 h, given about 3 days after siRNA transfection
Challenge: bacterial LPS (TLR4 ligand), 10 ng/ml
Measured: 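Ratio of firefly to renilla light, scaled to the plate median and expressed as a robust z-score per replicate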
Scale: TNF reporter robust z-score: higher = stronger TNF reporter response to LPS
Active means: 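Each well counts as active if its z-score is over 2.8 or under -1.5; controls are left without a call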
In all, the deposit lists about 18,000 reagents; this is an unselected part. Over the whole deposit, about 2,900 (16%) got an active call. 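Calls are made per well; low scores hint the gene aids the LPS response, high scores that it dampens it.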 Repeated entries: four replicate wells of each siRNA pool.

TNF reporter robust z-score,call,gene knocked down
-0.6,inactive,PIAS4 (protein inhibitor of activated STAT 4)
-0.39,inactive,PIAS4 (protein inhibitor of activated STAT 4)
-0.76,inactive,PIAS4 (protein inhibitor of activated STAT 4)
-1.05,inactive,PIAS4 (protein inhibitor of activated STAT 4)
-1.11,inactive,"TMLHE (trimethyllysine hydroxylase, epsilon)"
-0.14,inactive,"TMLHE (trimethyllysine hydroxylase, epsilon)"
-0.93,inactive,"TMLHE (trimethyllysine hydroxylase, epsilon)"
0.03,inactive,"TMLHE (trimethyllysine hydroxylase, epsilon)"
0.28,inactive,KRTAP10-8 (keratin associated protein 10-8)
0.81,inactive,KRTAP10-8 (keratin associated protein 10-8)
1.3,inactive,KRTAP10-8 (keratin associated protein 10-8)
-0.75,inactive,KRTAP10-8 (keratin associated protein 10-8)
-0.22,inactive,CENPI (centromere protein I)
-0.45,inactive,CENPI (centromere protein I)
0.49,inactive,CENPI (centromere protein I)
0.31,inactive,CENPI (centromere protein I)
-1,inactive,CNTN4 (contactin 4)
-0.68,inactive,CNTN4 (contactin 4)
-0.87,inactive,CNTN4 (contactin 4)
-0.29,inactive,CISD1 (CDGSH iron sulfur domain 1)
-0.44,inactive,CISD1 (CDGSH iron sulfur domain 1)
-0.54,inactive,CISD1 (CDGSH iron sulfur domain 1)
-0.28,inactive,CISD1 (CDGSH iron sulfur domain 1)
0.79,inactive,HK2 (hexokinase 2)
-0.97,inactive,HK2 (hexokinase 2)
-0.82,inactive,HK2 (hexokinase 2)
-0.35,inactive,HK2 (hexokinase 2)
0,inactive,NAPEPLD (N-acyl phosphatidylethanolamine phospholipase D)
0.49,inactive,NAPEPLD (N-acyl phosphatidylethanolamine phospholipase D)
-0.46,inactive,NAPEPLD (N-acyl phosphatidylethanolamine phospholipase D)
0.05,inactive,NAPEPLD (N-acyl phosphatidylethanolamine phospholipase D)
0.26,inactive,NFASC (neurofascin)
0.51,inactive,NFASC (neurofascin)
-0.53,inactive,NFASC (neurofascin)
0.74,inactive,NFASC (neurofascin)
1.02,inactive,"DICER1 (dicer 1, ribonuclease III)"
-0.24,inactive,"DICER1 (dicer 1, ribonuclease III)"
-0.43,inactive,"DICER1 (dicer 1, ribonuclease III)"
-0.41,inactive,"DICER1 (dicer 1, ribonuclease III)"
-1.13,inactive,FAM177B (family with sequence similarity 177 member B)
-0.64,inactive,FAM177B (family with sequence similarity 177 member B)
-0.33,inactive,FAM177B (family with sequence similarity 177 member B)
0.19,inactive,FAM177B (family with sequence similarity 177 member B)
1.14,inactive,GPR157 (G protein-coupled receptor 157)
0.44,inactive,GPR157 (G protein-coupled receptor 157)
0.14,inactive,GPR157 (G protein-coupled receptor 157)
-1.06,inactive,GPR157 (G protein-coupled receptor 157)
0.63,inactive,TSPYL4 (TSPY like 4)
1.24,inactive,TSPYL4 (TSPY like 4)
1.36,inactive,TSPYL4 (TSPY like 4)
1.97,inactive,TSPYL4 (TSPY like 4)
-1.47,inactive,GNG4 (G protein subunit gamma 4)
-0.7,inactive,GNG4 (G protein subunit gamma 4)
-1.05,inactive,GNG4 (G protein subunit gamma 4)
-0.86,inactive,GNG4 (G protein subunit gamma 4)
-0.6,inactive,TBC1D4 (TBC1 domain family member 4)
-0.71,inactive,TBC1D4 (TBC1 domain family member 4)
-0.94,inactive,TBC1D4 (TBC1 domain family member 4)
-0.86,inactive,TBC1D4 (TBC1 domain family member 4)
-1.87,active,PSMB4 (proteasome 20S subunit beta 4)
-1.43,inactive,PSMB4 (proteasome 20S subunit beta 4)
-1.62,active,PSMB4 (proteasome 20S subunit beta 4)
-1.58,active,PSMB4 (proteasome 20S subunit beta 4)
0.26,inactive,ZNF70 (zinc finger protein 70)
-0.12,inactive,ZNF70 (zinc finger protein 70)
-0.7,inactive,ZNF70 (zinc finger protein 70)
0.18,inactive,ZNF70 (zinc finger protein 70)
0.77,inactive,STXBP2 (syntaxin binding protein 2)
0.69,inactive,STXBP2 (syntaxin binding protein 2)
0.1,inactive,STXBP2 (syntaxin binding protein 2)
2.27,inactive,STXBP2 (syntaxin binding protein 2)
-0.56,inactive,WSCD1 (WSC domain sialate O sulfotransferase 1)
-0.41,inactive,WSCD1 (WSC domain sialate O sulfotransferase 1)
-0.76,inactive,WSCD1 (WSC domain sialate O sulfotransferase 1)
-0.31,inactive,WSCD1 (WSC domain sialate O sulfotransferase 1)

Sorted by “TNF reporter robust z-score” (ascending): 13 of the entries above.
TNF reporter robust z-score,call,gene knocked down
-1.11,inactive,"TMLHE (trimethyllysine hydroxylase, epsilon)"
-1.05,inactive,PIAS4 (protein inhibitor of activated STAT 4)
-0.93,inactive,"TMLHE (trimethyllysine hydroxylase, epsilon)"
-0.75,inactive,KRTAP10-8 (keratin associated protein 10-8)
-0.45,inactive,CENPI (centromere protein I)
-0.22,inactive,CENPI (centromere protein I)
-0.14,inactive,"TMLHE (trimethyllysine hydroxylase, epsilon)"
0.03,inactive,"TMLHE (trimethyllysine hydroxylase, epsilon)"
0.28,inactive,KRTAP10-8 (keratin associated protein 10-8)
0.31,inactive,CENPI (centromere protein I)
0.49,inactive,CENPI (centromere protein I)
0.81,inactive,KRTAP10-8 (keratin associated protein 10-8)
1.3,inactive,KRTAP10-8 (keratin associated protein 10-8)
